Experimental data published in PubChem BioAssay AID1347423 (Functional Genomics Laboratory (NCATS/FGL), 2020).
The campaign covered roughly 52,000 sequences. About 210 (0.4%) were called active.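 The calls were made as follows: active = gene whose silencing raises cell survival under the drug, median off-target-corrected z-score across its silencing RNAs 2 or more; inactive = the rest.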 The list shows a part of the results.

Assay: Resistance to Poly (ADP-Ribose) Polymerase inhibitor: Gene Identification via Genome-wide siRNA Screen
Conditions: mouse BRCA2 R2336H ES cells, olaparib, CellTiter-Glo viability; hits give high values
Method in brief: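 Genome-wide siRNA screen (3 siRNAs/gene, 20 nM) in mouse ES cells carrying hypomorphic BRCA2 R2336H; olaparib 500 nM added 48 h post-transfection, CellTiter-Glo viability 72 h later. Normalized to plate-median negative control; MAD z-scores, gene median, seed-adjusted.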

Sequence | z-score
GGUUCUUUUUGGUGUUAUGTT against Psme3 | inactive: 1.04
GCUACUAUCUGGAGUCGUATT against Pycard | inactive: -0.911
GGCUUAAGUGUGCAGCUACTT against B3gnt4 | inactive: 0.865
GGAGAACACCAAAAAGGGCTT against Uncx4.1 | inactive: -0.808
GGUGGACAUGAGCAAAGUATT against Srrm1 | inactive: 0.786
GGUCCUUUCCCAUAACCUGTT against Swap70 | inactive: 0.826
GGUGAAAUAUGUUAUCUGGTT against Copa | inactive: -3.31
CAAACCUUGUUGCCAUGACTT against Olfr406 | inactive: 1.13
GCGGAAGUCGGAUUUUAUCTT against Kif1c | inactive: -0.771
CCUAUGUUUUAGCAAGCAGTT against Acyp2 | inactive: 0.0183
GGUGUACCUCUGAAAAAAATT against Zbp1 | inactive: -0.735
GGGAAACUUUGCCACCUUATT against Tm4sf7 | inactive: -0.305
GAGACUAAUAUAGUGAAUGTT against Foxj1 | inactive: 1.1
GGAGAAGUCCAAAUUCGAGTT against Raly | inactive: -0.265
GGCCGUCGGAAAAAGGAUGTT against Abcf1 | inactive: -0.905
GGGCCACAGUUUCAGCUUCTT against H6pd | inactive: 1.71
GCACUAGCAGGAUUCAUUGTT against C030002O17Rik | inactive: 1.4
GGAUUUGAACUCAGAUGUUTT against A430057M04Rik | inactive: -1.58
GGCUCAUAUUUGCUACUGUTT against Gprc5d | inactive: 0.608
GGAAGGAUCCGUGAUGAAGTT against BC049730 | inactive: -0.875
GGACACAGACACCAAACAATT against Gcn5l2 | inactive: 2.6
CGAAACAUCCCUAUGCUCUTT against Lsm3 | inactive: -0.163
GGCUGUGGAUUUCUCUCUGTT against Kng1 | inactive: 0.0352
GGAGCCAGAACCUGAAAUUTT against Ankrd1 | inactive: -0.369
GUUGUAUUUCUUUGCCUUCTT against Olfr1098 | inactive: -1.01
GGACAUUUGACACACAACATT against 1200016D23Rik | inactive: -0.466

Four entries from above, set out differently:
Sequence	z-score
CAAACCUUGUUGCCAUGACTT against Olfr406	inactive: 1.13
GGUGUACCUCUGAAAAAAATT against Zbp1	inactive: -0.735
CGAAACAUCCCUAUGCUCUTT against Lsm3	inactive: -0.163
GGAGCCAGAACCUGAAAUUTT against Ankrd1	inactive: -0.369

Continued:

Sequence | z-score
GGAUGUGCAAGAGAAAUUCTT against 3010001K23Rik | inactive: 0.717
GGAGAUCAUGUCCAAGUACTT against Bk | inactive: -0.973
GGUGACUUCCACUCUAACUTT against 4933406N12Rik | inactive: 1.09
GCUCAUAGAGCAAAUACGUTT against Sall1 | inactive: -0.498
CCUGAAAGAUAACAAGUGGTT against 6530404N21Rik | inactive: -2.39
GGGUGCUAAUCUGAAAGGUTT against Kctd9 | inactive: 0.995
GCCGACGAGUAUACUAGACTT against Odz3 | inactive: -0.0279
GGAAUUAUCUGAGCCUGUGTT against BC021381 | inactive: -2.61
CCAAGUGUUACCUCACUACTT against Cables2 | inactive: -0.782
GCACUAUCCACAUGCACAUTT against Olfr1281 | inactive: 0.84
GGUAAAACAGAGGAGUCGGTT against AI480556 | inactive: 1.54
GGAUGGAAAACUCAUCAUCTT against Gnb1 | inactive: -2.74
CCAAGAAAUGUAUGCCAUUTT against Slc26a2 | inactive: 0.433
GCCUGAUUAGCAAGUGAUGTT against Evx1 | inactive: -0.0221
GGUUGCUAAUAGGGAAGAUTT against Rxrip110 | inactive: -0.809
GCUCCUUUAGCAUCUUAAUTT against 1700009P13Rik | inactive: -0.217
GGGUGUGACCGAAGCUCAUTT against D10Jhu81e | inactive: 1.06
GGAACUGAAAUUCAGUUGGTT against Oazin | inactive: -0.825
CCAAGAGUUGUCAAUAUAATT against Crisp3 | inactive: -0.639
CCACACAGUUAAUUGAAAUTT against D13Wsu123e | inactive: 0.0298
GGACUGCCUUAUGCUACGATT against 2900045N06Rik | inactive: -0.461
GCAGACCAUAUUACAAGUUTT against Herc3 | inactive: -1.45
GGAUAACUUGAUCCACCACTT against Olfr382 | inactive: 0.715
GGAGAACGAAAGGAUGAAATT against Rpusd4 | inactive: -1.09
GGAUUUAGUGUAAUGCCAATT against Pfn4 | inactive: -0.0915
GGAGAUCGAUGGAGACUUCTT against Sftpa1 | inactive: -2.69
